Cleaved PARP after 72 h of treatment

From a melanoma drug combination screen (doi:10.1371/journal.pone.0140310); values rounded.

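Human melanoma cell lines in 1,536-well plates were treated with two drugs together for 72 h, then fixed, stained and imaged. Values are the share of nuclei positive for cleaved PARP as a percentage of the same share in the DMSO control: 100 is the control level, higher means more apoptosis. Every drug was used at one fixed concentration, the higher of two screened. The file gives one value for each pair and line, without errors, so small differences may be noise. The marker varies much from line to line, for technical or biological reasons.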
Only some of the drugs and lines screened are listed, without regard to their results.
An entry leaves out what has no value listed here.

Compounds and concentrations:
SNS-032 (50 nM): CC(C)(C)c1cnc(CSc2cnc(NC(=O)C3CCNCC3)s2)o1
sorafenib (2000 nM): CNC(=O)c1cc(Oc2ccc(NC(=O)Nc3ccc(Cl)c(C(F)(F)F)c3)cc2)ccn1
tipifarnib (50 nM): Cn1cncc1[C@@](N)(c1ccc(Cl)cc1)c1ccc2c(c1)c(-c1cccc(Cl)c1)cc(=O)n2C
BI-78D3 (1000 nM): O=c1[nH]nc(Sc2ncc([N+](=O)[O-])s2)n1-c1ccc2c(c1)OCCO2
OSU-03012 (5000 nM): NCC(=O)Nc1ccc(-n2nc(C(F)(F)F)cc2-c2ccc3c(ccc4ccccc43)c2)cc1
LFM-A13 (10000 nM): C/C(O)=C(\C#N)C(=O)Nc1cc(Br)ccc1Br
KU-0063794 (100 nM): COc1ccc(-c2ccc3c(N4CCOCC4)nc(N4C[C@@H](C)O[C@@H](C)C4)nc3n2)cc1CO
dovitinib (500 nM): CN1CCN(c2ccc3nc(-c4c(N)c5c(F)cccc5[nH]c4=O)[nH]c3c2)CC1
docetaxel (0.5 nM): CC(=O)O[C@@]12CO[C@@H]1C[C@H](O)[C@@]1(C)C(=O)[C@H](O)C3=C(C)[C@@H](OC(=O)[C@H](O)[C@@H](NC(=O)OC(C)(C)C)c4ccccc4)C[C@@](O)([C@@H](OC(=O)c4ccccc4)[C@H]21)C3(C)C
bortezomib (5 nM): CC(C)C[C@H](NC(=O)[C@H](Cc1ccccc1)NC(=O)c1cnccn1)B(O)O

Results for KU-0063794 and BI-78D3 are A101D: 137; COLO 829: 96.9; MZ2-MEL: 104; MeWo: 51.4; A375: 64.8; SK-MEL-28: 68.8; WM3526: 97.6; MEL-HO: 90.0.
Results for tipifarnib and BI-78D3 are A101D: 59.3; COLO 829: 56.9; MZ2-MEL: 59.9; MeWo: 91.9; SK-MEL-28: 102; WM3526: 86.8; MEL-HO: 124.
Results for BI-78D3 and dovitinib are A101D: 107; COLO 829: 139; MZ2-MEL: 425; MeWo: 396; A375: 83.2; SK-MEL-28: 24.0; WM3526: 177; MEL-HO: 221.
Results for sorafenib and BI-78D3 are A101D: 67.7; COLO 829: 38.0; MZ2-MEL: 138; MeWo: 163; A375: 147; SK-MEL-28: 44.0; WM3526: 104; MEL-HO: 77.8.
Results for LFM-A13 and SNS-032 are A101D: 53.0; COLO 829: 79.2; MZ2-MEL: 106; MeWo: 107; A375: 12.2; SK-MEL-28: 113; WM3526: 160; MEL-HO: 48.5.
Results for SNS-032 and KU-0063794 are A101D: 60.4; COLO 829: 70.5; MZ2-MEL: 332; MeWo: 115; A375: 91.2; SK-MEL-28: 84.6; WM3526: 170; MEL-HO: 62.0.
Results for SNS-032 and tipifarnib are A101D: 92.3; COLO 829: 121; MZ2-MEL: 182; MeWo: 190; SK-MEL-28: 156; WM3526: 308; MEL-HO: 39.0.
Results for tipifarnib and OSU-03012 are A101D: 210; COLO 829: 216; MZ2-MEL: 41.2; MeWo: 112; SK-MEL-28: 957; WM3526: 708; MEL-HO: 86.0.
Results for bortezomib and BI-78D3 are A101D: 272; COLO 829: 2370; MZ2-MEL: 32900; MeWo: 1850; A375: 206; SK-MEL-28: 151; WM3526: 3690; MEL-HO: 105.
Results for BI-78D3 and LFM-A13 are A101D: 92.5; COLO 829: 78.2; MZ2-MEL: 121; MeWo: 76.2; A375: 151; SK-MEL-28: 126; WM3526: 51.8; MEL-HO: 95.2.
Results for sorafenib and dovitinib are A101D: 94.0; COLO 829: 148; MZ2-MEL: 209; MeWo: 212; A375: 119; SK-MEL-28: 173; WM3526: 128; MEL-HO: 170.
Results for BI-78D3 and SNS-032 are A101D: 166; COLO 829: 41.5; MZ2-MEL: 302; MeWo: 143; SK-MEL-28: 55.6; WM3526: 145; MEL-HO: 66.2.
Results for SNS-032 and docetaxel are A101D: 212; COLO 829: 378; MZ2-MEL: 470; MeWo: 1000; SK-MEL-28: 300; WM3526: 2350; MEL-HO: 156.
Results for dovitinib and SNS-032 are A101D: 72.4; COLO 829: 277; MZ2-MEL: 831; MeWo: 207; SK-MEL-28: 185; WM3526: 166; MEL-HO: 162.
Results for bortezomib and KU-0063794 are A101D: 167; COLO 829: 2700; MZ2-MEL: 12700; MeWo: 2450; A375: 121; SK-MEL-28: 121; WM3526: 834; MEL-HO: 363.
Results for dovitinib and docetaxel are A101D: 161; COLO 829: 106; MZ2-MEL: 699; MeWo: 1440; A375: 122; SK-MEL-28: 218; WM3526: 1830; MEL-HO: 228.
Results for KU-0063794 and LFM-A13 are A101D: 44.4; COLO 829: 84.5; MZ2-MEL: 84.1; MeWo: 63.0; A375: 72.8; SK-MEL-28: 119; WM3526: 99.9; MEL-HO: 101.
Results for OSU-03012 and bortezomib are A101D: 1400; COLO 829: 4500; MZ2-MEL: 31600; MeWo: 2650; SK-MEL-28: 840; WM3526: 9000; MEL-HO: 325.
Results for sorafenib and docetaxel are A101D: 117; COLO 829: 477; MZ2-MEL: 876; MeWo: 1150; A375: 125; SK-MEL-28: 511; WM3526: 1960; MEL-HO: 95.6.
Results for docetaxel and LFM-A13 are A101D: 331; COLO 829: 316; MZ2-MEL: 476; MeWo: 493; A375: 202; SK-MEL-28: 143; WM3526: 731; MEL-HO: 146.
Results for sorafenib and OSU-03012 are A101D: 209; COLO 829: 49.6; MZ2-MEL: 98.9; MeWo: 55.0; SK-MEL-28: 482; WM3526: 330; MEL-HO: 80.2.
Results for SNS-032 and OSU-03012 are A101D: 201; COLO 829: 70.8; MZ2-MEL: 205; MeWo: 74.1; SK-MEL-28: 855; WM3526: 264; MEL-HO: 89.0.
Results for KU-0063794 and tipifarnib are A101D: 309; COLO 829: 56.2; MZ2-MEL: 87.3; MeWo: 129; A375: 205; SK-MEL-28: 200; WM3526: 79.7; MEL-HO: 231.
Results for sorafenib and KU-0063794 are A101D: 59.4; COLO 829: 35.9; MZ2-MEL: 147; MeWo: 87.1; A375: 200; SK-MEL-28: 61.3; WM3526: 176; MEL-HO: 89.2.

The last 2 entries again:

{"pair": "KU-0063794 and tipifarnib", "A101D": 309, "COLO 829": 56.2, "MZ2-MEL": 87.3, "MeWo": 129, "A375": 205, "SK-MEL-28": 200, "WM3526": 79.7, "MEL-HO": 231}
{"pair": "sorafenib and KU-0063794", "A101D": 59.4, "COLO 829": 35.9, "MZ2-MEL": 147, "MeWo": 87.1, "A375": 200, "SK-MEL-28": 61.3, "WM3526": 176, "MEL-HO": 89.2}